Source: PubChem BioAssay AID1159578 (Peter MacCallum Cancer Centre, 2015)
Test: 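siRNA pools altering how lymphatic endothelial cells close a scratch wound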 (primary screen). Cell system: human lymphatic endothelial cells. Reagents: siRNA pool against human genes, 40 nM. Timing: 48 h after transfection. Detection: 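Cells stained with dye and imaged after a scratch; covered wound area and nuclei counted, duplicates averaged, migration set against mock wells and turned into a robust z-score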. Scale: migration robust z-score: higher = faster migration into the scratch; nuclei per well: higher = more cells in the well. Active means: 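Migration changed when robust z exceeds 2 or falls below -2 and mean nuclei number is at least 3300; otherwise not called changed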. Meaning of the calls: active = migration changed; inactive = no migration change, or too few cells.
The whole screen tested about 18,000 reagents; below is an unselected part. Of all reagents, about 1,030 (5.7%) were called active. 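Inactive calls also include pools with fewer than 3300 nuclei, whose migration was not assessed.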 Raw values vary from plate to plate and are shown uncorrected. A number with no mark means an inactive call. The numbers tell different reagents against one gene apart. Further read-outs or replicates are left out here. No sequences are given here.

What is on record for HYPK?
migration robust z-score: 1.12; migration class with cell-count check: migration z between -2 and 2; enough cells; nuclei per well, duplicate mean: 6102

With ZNF776, how do the results read?
migration robust z-score: -0.54; migration class with cell-count check: migration z between -2 and 2; enough cells; nuclei per well, duplicate mean: 5486

What is on record for CADM2?
migration robust z-score: -0.34; migration class with cell-count check: migration z between -2 and 2; enough cells; nuclei per well, duplicate mean: 5643

Which result is listed for EHD4?
migration robust z-score: -0.62; migration class with cell-count check: migration z between -2 and 2; enough cells; nuclei per well, duplicate mean: 5384

For CLDN7, what was measured?
migration robust z-score: -0.53; migration class with cell-count check: migration z between -2 and 2; enough cells; nuclei per well, duplicate mean: 6758

For NKAIN1, how do the results read?
migration robust z-score: 0.17; migration class with cell-count check: migration z between -2 and 2; enough cells; nuclei per well, duplicate mean: 5644

For CCRL2, what was measured?
migration robust z-score: -0.62; migration class with cell-count check: migration z between -2 and 2; enough cells; nuclei per well, duplicate mean: 6324

For XKR9, how do the results read?
migration robust z-score: -0.38; migration class with cell-count check: migration z between -2 and 2; enough cells; nuclei per well, duplicate mean: 5266

With DCP1A, what was measured?
migration robust z-score: 1.81; migration class with cell-count check: migration z between -2 and 2; enough cells; nuclei per well, duplicate mean: 5288

How did the screen score NTM?
migration robust z-score: -2.4 (active); migration class with cell-count check: migration z below -2; enough cells; nuclei per well, duplicate mean: 3826

Which result is listed for MED27?
migration robust z-score: -2.16 (active); migration class with cell-count check: migration z below -2; enough cells; nuclei per well, duplicate mean: 4210

For KBTBD12, how do the results read?
migration robust z-score: 2.03 (active); migration class with cell-count check: migration z above 2; enough cells; nuclei per well, duplicate mean: 5498

What did the screen give for TBPL1?
migration robust z-score: 0.1; migration class with cell-count check: migration z between -2 and 2; enough cells; nuclei per well, duplicate mean: 6156

Quoted from the listing for reference:
CADM2 | migration robust z-score = -0.34; migration class with cell-count check = migration z between -2 and 2; enough cells; nuclei per well, duplicate mean = 5643
EHD4 | migration robust z-score = -0.62; migration class with cell-count check = migration z between -2 and 2; enough cells; nuclei per well, duplicate mean = 5384

Continued:
For DOK3, what was measured?
migration robust z-score: -1.12; migration class with cell-count check: migration z between -2 and 2; enough cells; nuclei per well, duplicate mean: 6510

What did the screen give for ARHGAP27 #1?
migration robust z-score: -0.44; migration class with cell-count check: migration z between -2 and 2; enough cells; nuclei per well, duplicate mean: 7410

How did the screen score ARHGAP27 #2?
migration robust z-score: 1.58; migration class with cell-count check: migration z between -2 and 2; enough cells; nuclei per well, duplicate mean: 5222

How did the screen score INTS2?
migration robust z-score: -1.3; migration class with cell-count check: migration z between -2 and 2; enough cells; nuclei per well, duplicate mean: 5351

What is on record for NAP1L2?
migration robust z-score: 0.71; migration class with cell-count check: migration z between -2 and 2; enough cells; nuclei per well, duplicate mean: 5686

With ACOT2, what does the deposit list?
migration robust z-score: -0.26; migration class with cell-count check: migration z between -2 and 2; enough cells; nuclei per well, duplicate mean: 4420

How did the screen score PPA2?
migration robust z-score: 0.18; migration class with cell-count check: migration z between -2 and 2; enough cells; nuclei per well, duplicate mean: 4880

Which result is listed for POTEH?
migration robust z-score: -0.66; migration class with cell-count check: migration z between -2 and 2; enough cells; nuclei per well, duplicate mean: 3689

What did the screen give for GTF2H5?
migration robust z-score: -0.56; migration class with cell-count check: migration z between -2 and 2; enough cells; nuclei per well, duplicate mean: 6101

What is on record for PTCH2?
migration robust z-score: -1.15; migration class with cell-count check: migration z between -2 and 2; enough cells; nuclei per well, duplicate mean: 3738

With ZNF300, what was measured?
migration robust z-score: 0.86; migration class with cell-count check: migration z between -2 and 2; enough cells; nuclei per well, duplicate mean: 5180

With ABHD6, what does the deposit list?
migration robust z-score: 0.8; migration class with cell-count check: migration z between -2 and 2; enough cells; nuclei per well, duplicate mean: 5973

For FCGBP, what was measured?
migration robust z-score: 0.64; migration class with cell-count check: migration z between -2 and 2; enough cells; nuclei per well, duplicate mean: 6297

For RNF207, what was measured?
migration robust z-score: 0.9; migration class with cell-count check: migration z between -2 and 2; enough cells; nuclei per well, duplicate mean: 6326
